Laboratory results from patent US9248202B2, “Two-photon probe for detecting copper(II) ion and quantitative estimation of copper(II) ion in human tissue using the same” (Korea University Research and Business Foundation, priority 2014, dated 2016).

Experiment: Fluorescence titration with copper(II) ion (one-photon and two-photon)
Assay type: binding
Protocol: Referring to FIG. 3(b), when small increments of copper(II) ion were added to ACCu2 in EtOH/HEPES (9/1 viv, pH=7.0), the TPEF intensity at the channel 2 (Ired) decreased gradually without any appreciable change at the channel 1 (Iblue).
The dissociation constant (Kd) can be calculated using Equation (2): […]
wherein I is the fluorescence intensity, Ifinal is the fluorescence intensity for the CU^2+-ACCu2 complex and Iinitial is the fluorescence intensity for ACCu2.
The dissociation constants (Kd^OP and Kd^TP) of ACCu2 for the OP and TP processes can be calculated from the fluorescence titration curves shown in FIG. 3(b). […] These indicate 1:1 complexation between the probe and the cation.
Referring to FIG. 5(a), the fluorescence intensities of ACCu2 according to the present disclosure measured by the OP (one-photon) and TP (two-photon) processes decreased by 10-fold in the presence of 200 μM of copper(II) ion. […] This means that quantitative measurement of copper(II) ion is possible in this concentration range. Moreover, the Ired/Iblue ratios determined in the two-photon mode were well fitted by the titration curve obtained in the one-photon mode.

COCCOCCOCCOc1ccc2c(ccc3cc(C(=O)N4CCN(C(=O)c5ccc(CNC(=O)c6cc7cc8ccc(N(C)C)cc8cc7oc6=O)nc5)CC4)c(=O)oc32)c1 [ACCu2]
Job plot maximum, molar fraction (EtOH/HEPES (9:1, pH 7.0)): 0.20
slope of Hill plots for copper(II) ion (OP and TP processes, ACCu2 3 μM, Cu2+ 0-200 μM): 1.0
